From EP0444898A1 (MERCK & CO. INC., priority 1990, dated 1991)

How the values were obtained:
[1] = general procedure: Boc solid-phase peptide synthesis; Boc-L-Pro-O-(PAM)-resin; BOP reagent/DIEA for some couplings; acid chloride coupling; conditions: whole synthesis
[2] = general procedure: Boc solid-phase peptide synthesis; chloromethylated resin (Merrifield resin); Boc-L-Pro-O-(PAM)-resin; BOP reagent/DIEA for some couplings; acid chloride coupling; conditions: for final HPLC purity: HPLC (Method G); for isolated mass: scale 1 mmole
[3] = general procedure: Boc solid-phase peptide synthesis; Boc-L-Pro-(Merrifield)-resin; BOP reagent/DIEA for some couplings; acid chloride coupling; conditions: whole synthesis, head-to-tail ring
peptide synthesis = conditions: whole synthesis, HPLC (Method G), scale of the general procedure 1 mmole
[4] = whole synthesis, scale of the general procedure 1 mmole
[5] = scale 1 mmole, head-to-tail ring
[6] = whole synthesis, scale of the general procedure 1 mmole, head-to-tail ring

| Substance | final HPLC purity [2, 4] | isolated yield [2, 4] | isolated mass ([2]; whole synthesis) | other results |
| --- | --- | --- | --- | --- |
| C-[D-2-Nal-L-Ile-D-Pip-L-(Boc)-Lys-D-(N-Me)Phe-L-Pro] | 99% | 66% | – | isolated mass ([1]; scale 1 mmole): 300 mg |
| C-[D-(O-t-Bu)-Tyr-L-lle-D-Pip-L-(Boc)Lys-D-(N-Me)Phe-L-Pro] | 99% | 73% | – | isolated mass ([1]; scale 0.5 mmole): 700 mg |
| C-[D-O-Bzl)-Tyr-L-Ile-D-Pip-L-(Boc)Lys-D-(N-Me)Phe-L-Pro] | 99% | 73% | – | isolated mass ([1]; scale 1 mmole): 700 mg |
| C-[D-Phe-L-Phe-D-Pip-L-Pip-N-Me-D-Phe-L-Pro] | – | – | – | isolated mass [1, 5]: 348 mg; final HPLC purity [2, 6]: 95%; isolated yield [2, 6]: 45% |
| c-[D-2-Nal-L-Ile-D-Pip-L-(Cbz)Pipe-D-His-L-Pro] | – | – | – | isolated mass [1, 5]: 236 mg; final HPLC purity [2, 6]: 96%; isolated yield [2, 6]: 26% |
| c-[D-2-Naphthylalanyl-L-isoleucinyl-D-pipecolyl-L-piperazin-2-yl (4-Cbz)-D-(Na-methyl)-phenylalanyl-L-prolyl] | – | – | – | final HPLC purity ([3]; 214 nM): >98% |
| c-[D-(O-Benzyl)-tyrosyl-L-isoleucyl-D-(Nδ-Cbz)-piperazyl-L-(Nδ-Cbz)-piperazyl-D-phenylalanyl-L-prolyl] | – | – | – | final HPLC purity (peptide synthesis): 96.3% pure |
| c-[D-Phenylalanyl-L-isoleucinyl-D-pipecolyl-L-pipecolyl-D-(β-t-butyl)aspartyl-L-prolyl] | – | – | – | final HPLC purity ([3]; 214 nM): >98% |
| c-[D-Trp-L-HomoPhe-D-Pip-L-Pip-D-(NMe)Phe-L-Pro] | – | – | – | isolated mass [1, 5]: 520 mg; isolated yield [1, 5]: 63%; final HPLC purity [2, 6]: 99% |
| c-[D-Trp-L-Phe-D-Pip-L-Pip-D-(NMe)Phe-L-Pro] | – | – | – | isolated mass [1, 5]: 611 mg; final HPLC purity [2, 6]: 99%; isolated yield [2, 6]: 75% |
| c-[D-Tryptophanyl-L-isoleucinyl-D-pipecolyl-D-piperazin-2-yl(4-Cbz)-D-(Nα-methyl)phenylalanyl-L-prolyl] | – | – | – | final HPLC purity ([3]; 210 nM): >98% |
| c-[D-Tryptophanyl-L-isoleucinyl-D-pipecolyl-L-pipecolyl-D-(β-t-butyl)aspartyl-L-prolyl] | – | – | – | final HPLC purity ([3]; 214 nM): >95% |
| c-[D-Tryptophanyl-L-isoleucinyl-D-prolyl-L-histidyl-D-histidyl-L-prolyl] | – | – | – | final HPLC purity ([3]; 210 nM): 99.7% |
| c-[D-Tryptophanyl-L-isoleucyl-D-Δ-piperazyl-(Nδ-Boc)-L-ornithyl-N-methyl-D-phenylalanyl-L-prolyl] | – | – | – | final HPLC purity (peptide synthesis): 95.6% |
| cyclo[D-Ala-L-Ile-D-Pip-L-Pip-D-Phe-L-Pro] | purity 99% | 70% | – | isolated mass ([1]; scale 1 mmole): 452 mg |
| cyclo[D-MePhe-L-MeIle-D-Pip-L-Pip-D-MePhe-L-Pro] | – | – | – | step yield ([2]; late stage modification step): 40%; final HPLC purity ([2]; late stage modification step): purity 98% |
| cyclo[D-Phe-L-Ala-D-Pip-L-Pip-D-(NαMe)Phe-L-Pro] | purity 98.5% | 28% | 202 mg | – |
| cyclo[D-Phe-L-Ile-D-(3,4-dehydro)-Pip-L-Pip-D-(NαMe)Phe-L-Pro] | purity 98.5% | 45% | 320 mg | – |
| cyclo[D-Phe-L-Ile-D-(NαMe)Ala-L-Pip-D-(NαMe)Phe-L-Pro] | purity 99% | 48% | 350 mg | – |
| cyclo[D-Phe-L-Ile-D-Pip-D-(3,4-dehydro)-Pip-D-(NαMe)Phe-L-Pro] | purity 99% | 20% | 150 mg | – |
| cyclo[D-Phe-L-Ile-D-Pip-L-(3,4-dehydro)-Pip-D-(NαMe)Phe-L-Pro] | purity 99% | 70% | 520 mg | – |

| Substance | final HPLC purity [2, 4] | isolated yield [2, 4] | isolated mass ([2]; whole synthesis) | other results |
| --- | --- | --- | --- | --- |
| cyclo[D-Phe-L-Ile-D-Pip-L-(NαMe)Ala-D-(NαMe)Phe-L-Pro] | purity 99% | 64% | 470 mg | – |
| cyclo[D-Phe-L-Ile-D-Pip-L-His-D-(NαMe)Phe-L-Pro] | purity 98.5% | 5% | 42 mg | – |
| cyclo[D-Phe-L-Ile-D-Pip-L-Pip-3-PyrAla-L-Pro] isomer 1 | purity 97% | 4% | 31 mg | – |
| cyclo[D-Phe-L-Ile-D-Pip-L-Pip-3-PyrAla-L-Pro] isomer 2 | purity 96% | 2% | 40 mg | – |
| cyclo[D-Phe-L-Ile-D-Pip-L-Pip-D-(2-Cl-Cbz)-Lys-L-Pro] | – | 65% | 564 mg | – |
| cyclo[D-Phe-L-Ile-D-Pip-L-Pip-D-(Bzl)(NαMe)-Tyr-L-Pro] | purity 98.4% | 84% | 700 mg | – |
| cyclo[D-Phe-L-Ile-D-Pip-L-Pip-D-(Cbz)-Orn-L-Pro] | purity >97% | 70% | 582 mg | – |
| cyclo[D-Phe-L-Ile-D-Pip-L-Pip-D-(NαMe)Ala-L-Pro] | purity 99% | 44% | 340 mg | – |
| cyclo[D-Phe-L-Ile-D-Pip-L-Pip-D-(NαMe)Phe-L-Pro] | purity 99% | – | – | – |
| cyclo[D-Phe-L-Ile-D-Pip-L-Pip-D-His-L-Pro] | purity 99% | 28% | 248 mg | – |
| cyclo[D-Phe-L-Ile-D-Pip-L-Pip-D-Trp-L-Pro] | purity 99% | 65% | 500 mg | – |
| cyclo[D-Phe-L-Ile-D-Pip-L-Pro-D-(NαMe)Phe-L-Pro] | purity 98% | 39% | 382 mg | – |
| cyclo[D-Phe-L-Ile-D-Piz-L-Pip-D-His-L-Pro] | purity 99% | 4% | 38 mg | – |
| cyclo[D-Trp-L-Ile-D-Pip-L-(Cbz)Lys-D-Trp-L-Pro] | purity 99% | 67% | 650 mg | – |
| cyclo[D-Trp-L-Ile-D-Pip-L-Pip-D-(NαMe)His-L-Pro] | purity 99.% | 12% | 110 mg | – |
| cyclo[D-Trp-L-Ile-D-Pip-L-Pip-D-(NαMe)Phe-L-Pro] | purity 99% | 52% | 400 mg | – |
| cyclo[D-Trp-L-Leu-D-Pip-L-Pip-D-His-L-Pro] | purity 99% | 16% | 150 mg | – |
| cyclo[D-Trp-L-Nle-D-Pip-L-Pip-D-His-L-Pro] | purity 99% | 29% | 252 mg | – |
| cyclo[D-Trp-L-Phe-D-Pip-L-Pip-D-(NαMe)Phe-L-Pro] | purity 99% | 65% | 500 mg | – |
| cyclo[D-α-Nal-L-Ile-D-Pip-L-Pip-D-His-L-Pro] | purity 99% | 14% | 142 mg | – |
| o-[D-Phenylalanyl-L-isoleucyl-D-pipecolyl-Nβ-(amino-ethyl)-L-asparagyl-N-methyl-D-phenylalanyl-L-prolyl] | – | – | – | final HPLC purity ([2]; late stage modification step, head-to-tail ring): (99%) |
